Measurements as given in publication PMC7509050.
For at least one entry, the source does not settle the construct or the ends of the probe.

Test system: YeeY (Aeromonas hydrophila)
Experiment: EMSA
Conditions: 10x unlabeled probe used as competitor, EMSA binding buffer listed as (stocks) 1 M Tris-HCl pH 7.5, 5 M NaCl, 1 M KCl, 1 M MgCl2, 0.5 M EDTA pH 8.0, 10 mg/mL BSA, 30 min at 4 C in the dark, PAGE, recombinant protein

| Sequence | binding result | binding result (label: 5'-Cy5 on strand 1) |
| --- | --- | --- |
| TAGCATGTCGCTGCTTTATTCGCCTGAGGAACCGGGCTACCGGCATGACCGGGCACCAATAATAAGAA (double strand) [PAHA_4275 promoter probe] | binds |  |
| GCTATTTAAACTCTGCCCACCAGCTTGCATACTGGTGGGCAGCGTCTTTTGAGGGGAATAACA (double strand) [PAHA_3222 promoter probe] |  | binds |
